# Data taken from the supplement of paper PMC8256030.
# Values joined by “and” are separate entries in the source; they are usually repeats but may differ in a detail not shown here. Identical values can stand only once. Counter-ions that a name gives are not always drawn. The list shows a part of the results. Single values are uncertain here, since repeats match poorly.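 HEK293T cells were given each compound shortly before transfection with a reporter in which red mCherry is followed by the SARS-CoV-2 frameshift element and then GFP in the −1 frame, so GFP appears only after frameshifting.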
# Tested on: HEK293T
# Assay: percent viability (nuclei count) relative to control; higher = more viable cells
# Conditions: 10 µM; 24 h
row,SMILES,percent viability
1,COc1ccccc1N1CCN(CCCNc2cc(=O)n(C)c(=O)n2C)CC1 [urapidil],258%
2,CNC(=S)NCCSCc1[nH]cnc1C [metiamide],212%
3,CC(C)NCC(O)COc1cccc2[nH]c3ccccc3c12 (centres undefined) [carazolol],90.2%
4,C[C@@H]1[C@H](O)[C@@H](C)/C=C/C=C/C=C/C=C/C=C/C=C/C=C/[C@H](O[C@@H]2O[C@H](C)[C@@H](O)[C@H](N)[C@@H]2O)C[C@@H]2O[C@](O)(C[C@@H](O)C[C@@H](O)[C@H](O)CC[C@@H](O)C[C@@H](O)CC(=O)O[C@H]1C)C[C@H](O)[C@H]2C(=O)O [amphotericin B],187%
5,C/N=C(/NC#N)NCCSCc1csc(NC(=N)N)n1 [Tiotidine],172%
6,CC(=O)NC(CC(C)C)C(=O)O (centres undefined) [acetylleucine],311%
7,CC[C@H](C)[C@H](N)C(=O)O [isoleucine],306%
8,C[N+](C)(CCOc1ccccc1)Cc1ccccc1.O=C([O-])c1cc2ccccc2cc1O [bephenium hydroxynaphthoate],52.5%
9,CCOC(=O)[C@H](CCc1ccccc1)N[C@H]1CCc2ccccc2N(CC(=O)O)C1=O,174%
10,COc1cc2cc(c1Cl)N(C)C(=O)C[C@H](OC(=O)[C@H](C)N(C)C(C)=O)[C@]1(C)O[C@H]1[C@H](C)[C@@H]1C[C@@](O)(NC(=O)O1)[C@H](OC)/C=C/C=C(\C)C2 [maitansine],12.8%
11,CC(=O)Nc1ccc(C(=O)O)cc1 [acedoben],213%
12,COc1cc2ncnc(Nc3ccc(F)c(Cl)c3)c2cc1OCCCN1CCOCC1 [gefitinib],221% and 292%
13,CN1C(C)(C)CCCC1(C)C [pempidine],221%
14,CCC(C)CCCCC(=O)NCC[C@@H]1NC(=O)[C@H](CC(C)C)NC(=O)[C@H](CCN)NC(=O)[C@H](CC(C)C)NC(=O)[C@H](CCN)NC(=O)[C@H](CCN)NC(=O)[C@H](CCN)NC(=O)[C@H]([C@@H](C)O)NC1=O (some centres undefined) [colistimethate sodium],186%
15,CCCNC(C)C(=O)Nc1c(C)csc1C(=O)OC (centres undefined) [articaine],56.6%
16,Nc1nc(=O)n([C@@H]2CS[C@H](CO)O2)cc1F [emtricitabine],153%
17,Cn1c(=O)c2[nH]cnc2n(C)c1=O [Aminophylline],141%
18,CN1CCN(c2c(F)cc3c(=O)c(C(=O)O)cn4c3c2SCC4)CC1 [rufloxacin],257% and 149%
19,Cc1c(C(C)C)c(=O)n(-c2ccccc2)n1C [propyphenazone],106%
20,OCC(CO)N[C@H]1C[C@](O)(CO)[C@@H](O)[C@H](O)[C@H]1O [voglibose],204%

row,SMILES,percent viability
1,O=C1OCCN1/N=C/c1ccc([N+](=O)[O-])o1 [furazolidone],116%
2,N=c1nc(N2CCCCC2)cc(N)n1O [minoxidil],308% and 247%
3,NS(=O)(=O)c1cc2c(cc1Cl)NC(c1ccccc1)NC2=O (centres undefined) [fenquizone],94.3%
4,CC(=O)c1ccc(S(=O)(=O)NC(=O)NC2CCCCC2)cc1 [acetohexamide],284%
5,CC(C)OC(=O)[C@H](C)N[P@](=O)(OC[C@H]1O[C@@H](n2ccc(=O)[nH]c2=O)[C@](C)(F)[C@@H]1O)Oc1ccccc1 [Sofosbuvir],277%
6,CCc1cccc(N(C)C(=N)Nc2cccc3ccccc23)c1 [aptiganel],127%
7,Oc1ncnc2[nH]ncc12,262%
8,CCOc1cc(-c2nccc3cc(OC)c(OC)cc23)cc(OCC)c1OCC [octaverine],64.8%
9,C[C@]12CC[C@@H]3c4ccc(O)cc4C[C@@H](CCCCCCCCC[S+]([O-])CCCC(F)(F)C(F)(F)F)[C@H]3[C@@H]1CC[C@@H]2O (some centres undefined) [Fulvestrant],181%
10,Oc1ccc(C2CNCCc3c2cc(O)c(O)c3Cl)cc1 (centres undefined),67.5%
11,COc1cc2c(cc1OC)-c1c/c(=N\c3c(C)cc(C)cc3C)n(C)c(=O)n1CC2 [Trequinsin·HCl],238%
12,CCCOc1cc(N)ccc1C(=O)OCCN(CC)CC [propoxycaine],157%
13,Oc1cccc(O)c1,168%
14,O=C(O)CN(CCN(CC(=O)O)CC(=O)O)CCN(CC(=O)O)CC(=O)O [pentetic acid],122%
15,O=S(=O)(O)c1cc(I)c(O)c2ncccc12,158%
16,O=C(O)Cc1cc(I)c(Oc2ccc(O)c(I)c2)c(I)c1 [tiratricol],385%
17,C[C@@H](O)[C@H]1C(=O)N2C(C(=O)O)=C(S[C@@H]3CN[C@H](CNS(N)(=O)=O)C3)[C@H](C)[C@H]12 [doripenem],209%
18,O=[N+]([O-])c1ccc(O)c2ncccc12 [nitroxoline],253%
19,C=C[C@H]1CN2CC[C@H]1C[C@@H]2[C@@H](O)c1ccnc2ccc(OC)cc12,174% and 179%
